According to article PMC12040169 (PLOS Biology, 2025):
The other results are listed elsewhere or left out.

What follows are compounds tested on T1, CTL2-GFP (C. trachomatis L2/434/Bu, GFP-expressing). Conditions: bulk GFP, single well; 28.5 h, 10 µM; inhibitor.
T1 construct: L2/434/Bu, GFP-expressing
Design: species or system HeLa; Intracellular C. trachomatis growth in HeLa cells, bulk GFP fluorescence relative to DMSO

SMILES | % of control remaining
O=C(/C=C/c1cn(C2CC(O)C(CO)O2)c(=O)[nH]c1=O)NCCCCCCNC(=O)C(F)(F)F (stereo not drawn) [CBK201310] | 145.87%
O=C(CN1CCN(CC(=O)NC2CC2)CC1)Nc1cc(Cl)ccc1Cl [CBK306091] | 86.4211%
CC(=O)NCC1CC(c2ccc(C3=CCN(C(C)=O)CC3)cc2)=NO1 (stereo not drawn) [CBK010245] | 106.466%
CN1C(/C=N/O)=C(O)c2ccccc2S1(=O)=O [CBK010098] | 124.235%
CN(C)CCNC(=O)c1ccc(COc2ccc(Cl)cc2Cl)cc1 [CBK265878] | 87.3592%
Oc1ccc2cc(-c3ccc(OC(F)(F)F)cc3)cnc2n1 [CBK081300] | 118.752%
CC(/C=C1\SC(=S)N(CCC(=O)Nc2ccc(O)c(C(=O)O)c2)C1=O)=C\c1ccccc1 [CBK263875] | 104.444%
O=C(C1CCCC1)N1CCC(n2nc(-c3cccs3)oc2=O)CC1 [CBK282424] | 117.238%
CCN1CCN(c2ccc3nnc(C(C)C)n3n2)CC1 [CBK287974] | 134.615%
CN(C)CCCN[C@H]1CC[C@@H](c2ccccc2)CC1 [CBK016465] | 140.049%
COc1cc(C)nc(NC(=O)Nc2cccc(Cl)c2)n1 [CBK269828] | 141.522%
Cc1cnc2c(C(=O)N3CCCC3c3ccccn3)cnn2c1 (stereo not drawn) [CBK304612] | 128.203%
O=C(CC1Sc2ccc(Cl)cc2NC1=O)Nc1ccc([N+](=O)[O-])cc1 (stereo not drawn) [CBK264860] | 141.651%
Cc1ccc(C)c(NC(CC(=O)c2ccccc2)C(=O)O)c1 (stereo not drawn) [CBK265485] | 125.716%
CCOC(=O)C1(C2CCCCC2)CCN(C(=O)CCC(=O)O)CC1 [CBK136939] | 106.361%
Nc1ccc(C(=O)Nc2ccc(Nc3cc(-c4cccnc4)ncn3)cc2)cc1 [CBK037823] | 124.196%
CC(C)(CO)CNc1cncc(-c2cc3ccccc3o2)n1 [CBK066029] | 154.175%
CN(C)CCn1c2c(c3ccccc31)CCCn1nnnc1-2 [CBK267713C] | 135.645%
N#Cc1cc2c([nH]c1=S)CCN(Cc1ccccc1)C2 [CBK288378] | 147.391%
Cc1csc(-c2ccc(C(=O)N(C)CCN(C)C)c(NCC3CC3)n2)c1 [CBK106279] | 119.58%
Cc1nc(C)n(CCC(=O)NC(C)c2cccs2)n1 (stereo not drawn) [CBK282224] | 106.518%
Cc1cccc(CC(=O)N2CCCC2c2n[nH]cc2-c2ccncc2)c1 (stereo not drawn) [CBK283447] | 172.135%
CCN(Cc1ccncc1)C(=O)NCc1cnc(C)cn1 [CBK155128] | 104.567%
COc1ccc(C(C)C)cc1-c1nccnc1NCc1ccc2c(c1)OCO2 [CBK036683] | 113.971%
COCC(=O)N[C@H]1C[C@H]2C(=O)Nc3ccc(-c4ccsc4)cc3C(=O)N2C1 [CBK289360] | 113.097%
Cn1c(CN2CCN(c3ccc(C#N)cn3)CC2)nnc1C1CC1 [CBK304781] | 144.135%

SMILES | % of control remaining
CCC1CCCCN1C(=O)c1ccc(C(C)(C)C)cc1 (stereo not drawn) [CBK076644] | 98.5122%
COc1c(C)cc(S(=O)(=O)NCCN2CCOCC2)c(C)c1C [CBK269893] | 126.035%
COCCNC(=O)c1ccc(-c2cccc(Cl)c2Cl)nc1N(C)C [CBK106057] | 112.501%
Clc1cccc(Nc2cncc(-c3cccc4ccccc34)n2)c1 [CBK065764] | 114.588%
COc1cc(NC(=O)N(CCC#N)C2CCCCC2)cc(OC)c1OC [CBK156380] | 137.012%
Cc1csc(S(=O)(=O)Cc2nnc(C)n2C2CC2)n1 [CBK305494] | 107.845%
COc1ccc2nc(N/C(N)=N/C(=O)COc3ccc(Cl)cc3)nc(C)c2c1 [CBK263924] | 52.1766%
Cc1cc2ncc3c(n2n1)NC(c1ccc(Cl)cc1Cl)NC3=O (stereo not drawn) [CBK291167] | 126.826%
Fc1ccc(CN(Cc2ccco2)C2CCN(c3ccc4c(c3)OCO4)CC2)cc1 [CBK286197] | 108.101%
CN(Cc1ccc(O)cc1)C(=O)NC1CCCc2c1cnn2CCO (stereo not drawn) [CBK305354] | 115.562%
O=C(O)C1C2CCC(O2)C1C(=O)Nc1ccc(S(=O)(=O)N2CCc3ccccc32)cc1 (stereo not drawn) [CBK268137] | 113.072%
Cc1cc(C)nc(Nc2nc3ccccc3[nH]2)n1 [CBK263539] | 123.362%
O=C(O)c1ccc(C(=O)c2c3c(=O)n(-c4ccccc4C(=O)O)c(=O)c3cc3c(=O)n(-c4ccccc4C(=O)O)c(=O)c23)cc1 [CBK261183] | 91.7958%
CCn1ncc(CN2CCCC(CCC(=O)N3CCN(C)CC3)C2)c1C (stereo not drawn) [CBK306951] | 119.298%
CCC(C)NC(=O)Cn1cccc2cc(C3CCCNC3)nc1-2 (stereo not drawn) [CBK285087] | 115.825%
O=C(NCc1cccnc1)C(=O)Nc1ccc(F)cc1F [CBK269481] | 107.4%
O=C(Nc1cccc(CCc2ccccn2)c1)Nc1cccc2ccccc12 [CBK262337] | 118.708%
CN(C)c1ccc(-n2ccn(S(=O)(=O)c3ccc(Oc4ccccc4)cc3)c2=O)cc1 [CBK106608] | 176.013%
O=C(CCN1CCN(C(c2ccccc2)c2ccccc2)CC1)c1ccccc1 [CBK074788] | 100.762%
Cc1ccc(-c2cc(C(=O)NCc3ccc(-c4ccc(C(N)=O)c(C)n4)cc3)no2)cc1 [CBK285644] | 87.7656%
Cc1cc(C)n(CC(C)CNC(=O)Cc2csc(-c3ccco3)n2)n1 (stereo not drawn) [CBK305628] | 131.077%
COCCn1c(CO)nnc1[C@H]1C[C@@H](NC(=O)c2ccc(C)cc2F)C1 [CBK307296] | 106.11%
O=C(CSc1n[nH]c(=S)s1)NCCc1ccccc1 [CBK023445] | 110.103%
O=C(/C=C/c1c[nH]c2ccccc12)c1ccc(C(=O)/C=C/c2c[nH]c3ccccc23)cc1 [CBK264224] | 138.408%
Cc1ccc2cc(S(=O)(=O)Nc3cccc(C(=O)O)c3)ccc2c1 [CBK299812] | 135.616%
CC1CCc2c(sc(NC(=O)c3cccs3)c2C#N)C1 (stereo not drawn) [CBK304625] | 107.29%

SMILES | % of control remaining
COC(=O)CCc1ccc(S(=O)(=O)N2CCCN(Cc3cc(Cl)cc(Cl)c3)CC2)cc1 [CBK062982] | 106.839%
Cc1nc(COc2ccc(Cl)cc2)sc1C(=O)N1CCC1 [CBK306353] | 143.858%
CC(C)NC(=O)c1cc(C2CCN(C(=O)CCCc3ccc(F)cc3)C2)nc2ccccc12 (stereo not drawn) [CBK285921] | 100.844%
CCOC(=O)CN1CCC(Oc2cncc(OCc3cccnc3)n2)C1 (stereo not drawn) [CBK084462] | 130.467%
Cc1cc(NC(=O)N2CCN(c3ncccc3C#N)CC2)no1 [CBK305901] | 107.251%
O=C(NN=C1CCCCCCCCCCC1)c1cc2ccccc2cc1O [CBK261706] | 109.066%
CC1CCc2c(sc(NC(=S)NC(=O)c3cc4ccccc4o3)c2C#N)C1 (stereo not drawn) [CBK266319] | 189.472%
CCN1CCC2(CC1)CN(CC(N)=O)c1ccccc12 [CBK126798] | 123.833%
O=C(O)C(CCCN1CCCC1)(c1ccccc1)c1ccccc1 [CBK022695G] | 164.848%
COc1ccc2cc(CNc3ccc(Oc4ccccc4)cc3)c(=O)[nH]c2c1 [CBK286158] | 129.556%
COc1ccc(OCC(=O)Nc2ccc3oc(-c4ccc(OC)c(Br)c4)nc3c2)cc1 [CBK263913] | 111.551%
O=C(Cn1nnc2ccccc21)NCCN1CCCC1 [CBK267200] | 132.86%
CCOC(=O)c1cnc(SCC(=O)N2CCN(c3ccccc3)CC2)nc1N [CBK269159] | 129.173%
CCOc1ccccc1NC(=O)CCCN1C(=O)c2ccccc2C1=O [CBK265608] | 94.241%
O=C(Nc1cccc(C(F)(F)F)c1)Nc1cc(N2CCNCC2)c2occc2c1 [CBK061746C] | 69.6727%
CC1(C)CC(=O)c2sc(NC(=O)CN3C(=O)CCC3=O)nc2C1 [CBK287558] | 129.66%
O=C(C[C@@H]1CCNC[C@@H]1Cc1cc(-c2ccccc2)on1)N1CCN(c2ccccc2)CC1 [CBK289148] | 107.866%
COc1ccc(CC(=O)NCC(=O)N2CCC3(CC2)NCCc2nc[nH]c23)cc1 [CBK287997] | 87.2937%
O=C(O)CC1S/C(=N/N=C/c2ccc(-c3ccc(Cl)cc3)o2)NC1=O (stereo not drawn) [CBK264595] | 96.592%
COCOc1ccc(-c2nc(-c3ccco3)cnc2N)cc1 [CBK064108] | 122.239%
CCCc1nc(SC)ncc1C(=O)NCc1ccccn1 [CBK291190] | 110.634%
CC1CC1C(=O)NCCc1c[nH]c2cccc(C3(O)CCOCC3)c12 (stereo not drawn) [CBK284840] | 112.802%
CC1CCc2n[nH]c(C(=O)NCCCc3ccco3)c2C1 (stereo not drawn) [CBK283153] | 120.809%
O=S(=O)(N1CCOCC1)N1CCN(CC(O)COc2ccc(-c3ccccc3)cc2)CC1 (stereo not drawn) [CBK269301] | 140.817%
CC(C)(C)OC(=O)N1CCN(S(=O)(=O)c2ccc(Br)cc2)CC1 [CBK143623] | 146.192%
CC(C)(C)OC(=O)C1(NC(=O)Cc2cn3ccccc3n2)CCCC1 [CBK305500] | 126.551%

3 of these compounds in a different format:
O=C(NN=C1CCCCCCCCCCC1)c1cc2ccccc2cc1O [CBK261706]
  % of control remaining: 109.066%
CCN1CCC2(CC1)CN(CC(N)=O)c1ccccc12 [CBK126798]
  % of control remaining: 123.833%
O=C(C[C@@H]1CCNC[C@@H]1Cc1cc(-c2ccccc2)on1)N1CCN(c2ccccc2)CC1 [CBK289148]
  % of control remaining: 107.866%
